# Source: the supplement of paper PMC10849652
# By UniProt entry, the sequences of proteins in these tests, tags left out. Where a name states a change or a piece, a line headed by the entry shows the natural chain unless it says otherwise.
# UniProt O00512: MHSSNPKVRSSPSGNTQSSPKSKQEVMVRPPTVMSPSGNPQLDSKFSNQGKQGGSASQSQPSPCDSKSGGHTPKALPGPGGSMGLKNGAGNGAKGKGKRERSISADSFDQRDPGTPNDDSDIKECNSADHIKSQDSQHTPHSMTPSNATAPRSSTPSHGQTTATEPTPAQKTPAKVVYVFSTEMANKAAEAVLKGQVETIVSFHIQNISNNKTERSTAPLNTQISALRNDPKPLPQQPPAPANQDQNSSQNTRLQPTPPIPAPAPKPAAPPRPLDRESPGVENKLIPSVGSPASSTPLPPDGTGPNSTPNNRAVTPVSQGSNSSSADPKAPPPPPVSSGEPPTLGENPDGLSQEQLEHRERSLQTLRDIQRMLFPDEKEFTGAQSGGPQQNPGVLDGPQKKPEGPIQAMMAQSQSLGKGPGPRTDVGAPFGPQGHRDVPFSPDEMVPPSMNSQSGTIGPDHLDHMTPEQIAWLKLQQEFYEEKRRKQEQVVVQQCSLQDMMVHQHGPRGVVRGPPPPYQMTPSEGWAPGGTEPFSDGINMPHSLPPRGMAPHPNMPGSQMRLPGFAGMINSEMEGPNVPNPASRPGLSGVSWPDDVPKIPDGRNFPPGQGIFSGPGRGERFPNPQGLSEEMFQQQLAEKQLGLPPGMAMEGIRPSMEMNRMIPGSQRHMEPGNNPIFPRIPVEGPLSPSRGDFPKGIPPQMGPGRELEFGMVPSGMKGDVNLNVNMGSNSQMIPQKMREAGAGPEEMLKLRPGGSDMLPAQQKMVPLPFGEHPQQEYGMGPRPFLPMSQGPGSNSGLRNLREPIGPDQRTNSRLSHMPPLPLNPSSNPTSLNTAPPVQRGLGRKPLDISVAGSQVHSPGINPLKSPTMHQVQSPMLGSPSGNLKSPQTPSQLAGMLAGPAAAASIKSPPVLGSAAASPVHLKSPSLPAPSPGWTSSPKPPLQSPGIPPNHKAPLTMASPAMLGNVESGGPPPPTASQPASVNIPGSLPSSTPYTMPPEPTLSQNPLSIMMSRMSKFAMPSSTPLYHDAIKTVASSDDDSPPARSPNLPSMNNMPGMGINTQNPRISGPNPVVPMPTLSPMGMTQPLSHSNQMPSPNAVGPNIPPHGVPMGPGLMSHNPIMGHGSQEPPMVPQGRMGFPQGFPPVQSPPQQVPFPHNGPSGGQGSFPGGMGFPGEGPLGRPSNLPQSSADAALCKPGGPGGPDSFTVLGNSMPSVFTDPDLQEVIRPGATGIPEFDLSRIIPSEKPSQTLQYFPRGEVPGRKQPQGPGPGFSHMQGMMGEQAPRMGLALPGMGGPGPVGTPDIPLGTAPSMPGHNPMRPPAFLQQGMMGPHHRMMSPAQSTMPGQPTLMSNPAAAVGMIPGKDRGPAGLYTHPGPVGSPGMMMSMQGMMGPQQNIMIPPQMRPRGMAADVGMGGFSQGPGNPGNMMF
# UniProt P38398, whole entry, looked up: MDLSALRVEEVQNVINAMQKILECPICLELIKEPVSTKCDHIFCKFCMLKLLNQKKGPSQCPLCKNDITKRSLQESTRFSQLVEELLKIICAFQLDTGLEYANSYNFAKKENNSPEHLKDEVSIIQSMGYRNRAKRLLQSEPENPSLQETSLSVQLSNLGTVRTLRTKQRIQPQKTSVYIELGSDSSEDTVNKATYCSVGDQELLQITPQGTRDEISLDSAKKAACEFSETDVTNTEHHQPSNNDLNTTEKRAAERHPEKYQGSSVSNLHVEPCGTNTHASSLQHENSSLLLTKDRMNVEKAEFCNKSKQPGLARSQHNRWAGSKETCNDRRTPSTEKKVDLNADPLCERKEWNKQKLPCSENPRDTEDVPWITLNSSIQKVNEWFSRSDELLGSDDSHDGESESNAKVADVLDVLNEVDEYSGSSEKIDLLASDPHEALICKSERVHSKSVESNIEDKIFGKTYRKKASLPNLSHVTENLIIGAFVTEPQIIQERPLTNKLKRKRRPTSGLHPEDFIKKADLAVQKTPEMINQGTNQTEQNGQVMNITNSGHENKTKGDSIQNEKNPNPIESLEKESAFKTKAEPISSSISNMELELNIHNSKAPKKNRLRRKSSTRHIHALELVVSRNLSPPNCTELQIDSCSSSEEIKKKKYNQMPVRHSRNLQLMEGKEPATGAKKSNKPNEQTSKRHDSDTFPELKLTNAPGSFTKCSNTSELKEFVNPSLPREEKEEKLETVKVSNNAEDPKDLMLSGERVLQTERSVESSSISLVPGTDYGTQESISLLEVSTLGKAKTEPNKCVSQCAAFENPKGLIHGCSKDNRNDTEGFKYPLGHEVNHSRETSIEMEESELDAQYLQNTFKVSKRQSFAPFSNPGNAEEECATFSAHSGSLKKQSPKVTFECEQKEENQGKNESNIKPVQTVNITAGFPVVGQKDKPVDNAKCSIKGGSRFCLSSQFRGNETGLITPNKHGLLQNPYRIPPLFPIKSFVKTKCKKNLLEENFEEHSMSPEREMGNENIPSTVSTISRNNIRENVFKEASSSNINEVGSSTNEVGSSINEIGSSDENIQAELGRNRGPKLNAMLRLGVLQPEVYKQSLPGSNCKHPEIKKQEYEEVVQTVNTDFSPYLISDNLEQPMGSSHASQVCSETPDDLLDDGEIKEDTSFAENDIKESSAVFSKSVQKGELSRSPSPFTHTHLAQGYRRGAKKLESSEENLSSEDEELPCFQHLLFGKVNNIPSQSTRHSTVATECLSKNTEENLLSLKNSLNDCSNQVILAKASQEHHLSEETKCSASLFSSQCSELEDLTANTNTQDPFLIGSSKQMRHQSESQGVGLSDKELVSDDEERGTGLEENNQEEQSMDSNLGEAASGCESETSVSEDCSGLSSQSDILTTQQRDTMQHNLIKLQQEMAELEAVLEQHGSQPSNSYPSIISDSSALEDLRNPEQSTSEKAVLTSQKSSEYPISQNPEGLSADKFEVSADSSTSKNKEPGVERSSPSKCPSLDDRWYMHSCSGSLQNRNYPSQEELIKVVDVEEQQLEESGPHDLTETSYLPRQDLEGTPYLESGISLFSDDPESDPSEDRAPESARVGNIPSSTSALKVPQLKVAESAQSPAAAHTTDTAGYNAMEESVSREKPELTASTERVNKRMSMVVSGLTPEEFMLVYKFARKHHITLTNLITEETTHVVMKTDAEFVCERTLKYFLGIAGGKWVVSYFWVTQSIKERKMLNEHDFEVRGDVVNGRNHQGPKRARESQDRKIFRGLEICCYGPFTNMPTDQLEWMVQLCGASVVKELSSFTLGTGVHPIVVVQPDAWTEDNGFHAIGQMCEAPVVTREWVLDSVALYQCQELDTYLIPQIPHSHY
# UniProt Q9NYM9: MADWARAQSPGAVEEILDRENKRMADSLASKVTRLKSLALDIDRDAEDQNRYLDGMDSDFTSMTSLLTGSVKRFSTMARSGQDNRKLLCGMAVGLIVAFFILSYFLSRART
# UniProt O60238, whole entry, looked up: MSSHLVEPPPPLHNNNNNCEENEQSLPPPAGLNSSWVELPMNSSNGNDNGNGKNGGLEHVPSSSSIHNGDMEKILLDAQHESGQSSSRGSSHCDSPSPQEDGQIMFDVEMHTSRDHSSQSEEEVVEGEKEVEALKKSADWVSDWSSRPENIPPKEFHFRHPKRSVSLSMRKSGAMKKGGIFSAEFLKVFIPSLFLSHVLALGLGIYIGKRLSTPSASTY
# UniProt Q9UIG0: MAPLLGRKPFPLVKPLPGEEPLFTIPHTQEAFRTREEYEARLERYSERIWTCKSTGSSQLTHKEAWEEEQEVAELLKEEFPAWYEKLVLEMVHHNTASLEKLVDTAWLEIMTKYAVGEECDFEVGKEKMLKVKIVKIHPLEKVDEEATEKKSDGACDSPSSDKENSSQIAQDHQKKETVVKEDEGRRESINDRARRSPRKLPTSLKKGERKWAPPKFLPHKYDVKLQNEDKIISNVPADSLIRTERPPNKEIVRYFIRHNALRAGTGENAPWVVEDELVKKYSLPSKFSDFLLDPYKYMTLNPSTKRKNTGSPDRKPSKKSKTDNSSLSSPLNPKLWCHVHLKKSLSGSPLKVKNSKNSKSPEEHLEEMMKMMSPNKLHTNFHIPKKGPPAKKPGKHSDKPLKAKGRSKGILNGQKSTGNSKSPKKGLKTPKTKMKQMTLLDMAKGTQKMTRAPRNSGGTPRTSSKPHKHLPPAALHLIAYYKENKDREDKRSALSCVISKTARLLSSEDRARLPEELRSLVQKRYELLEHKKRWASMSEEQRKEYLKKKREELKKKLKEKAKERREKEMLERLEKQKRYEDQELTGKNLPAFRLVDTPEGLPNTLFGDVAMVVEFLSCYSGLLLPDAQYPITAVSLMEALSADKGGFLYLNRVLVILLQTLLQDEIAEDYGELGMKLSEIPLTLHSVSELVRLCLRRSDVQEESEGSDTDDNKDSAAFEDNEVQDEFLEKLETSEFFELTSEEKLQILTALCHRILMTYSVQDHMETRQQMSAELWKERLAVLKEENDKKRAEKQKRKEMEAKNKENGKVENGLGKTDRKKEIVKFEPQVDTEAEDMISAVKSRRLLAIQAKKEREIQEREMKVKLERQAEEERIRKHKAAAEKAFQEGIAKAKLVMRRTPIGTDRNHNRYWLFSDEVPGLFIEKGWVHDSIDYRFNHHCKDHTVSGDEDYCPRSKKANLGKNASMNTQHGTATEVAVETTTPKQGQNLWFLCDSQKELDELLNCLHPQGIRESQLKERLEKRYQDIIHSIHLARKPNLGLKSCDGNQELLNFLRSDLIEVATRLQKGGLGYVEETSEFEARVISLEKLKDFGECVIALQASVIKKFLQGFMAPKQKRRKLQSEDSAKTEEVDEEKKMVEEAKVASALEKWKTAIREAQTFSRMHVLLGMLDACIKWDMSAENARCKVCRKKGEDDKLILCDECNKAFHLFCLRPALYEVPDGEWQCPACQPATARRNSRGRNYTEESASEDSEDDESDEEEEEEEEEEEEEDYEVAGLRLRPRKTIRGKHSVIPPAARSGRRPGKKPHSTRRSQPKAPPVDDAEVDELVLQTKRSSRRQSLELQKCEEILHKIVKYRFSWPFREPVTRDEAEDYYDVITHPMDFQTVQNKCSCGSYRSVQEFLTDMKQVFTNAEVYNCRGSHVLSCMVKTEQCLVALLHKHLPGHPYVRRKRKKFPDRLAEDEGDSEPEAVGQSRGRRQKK
# UniProt O43521, whole entry, looked up: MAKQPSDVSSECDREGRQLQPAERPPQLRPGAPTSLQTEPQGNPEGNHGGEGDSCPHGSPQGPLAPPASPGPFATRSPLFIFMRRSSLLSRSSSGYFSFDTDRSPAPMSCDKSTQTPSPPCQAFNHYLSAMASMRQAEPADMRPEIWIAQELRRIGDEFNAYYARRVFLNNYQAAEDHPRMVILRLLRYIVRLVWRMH
# UniProt Q9HCU9: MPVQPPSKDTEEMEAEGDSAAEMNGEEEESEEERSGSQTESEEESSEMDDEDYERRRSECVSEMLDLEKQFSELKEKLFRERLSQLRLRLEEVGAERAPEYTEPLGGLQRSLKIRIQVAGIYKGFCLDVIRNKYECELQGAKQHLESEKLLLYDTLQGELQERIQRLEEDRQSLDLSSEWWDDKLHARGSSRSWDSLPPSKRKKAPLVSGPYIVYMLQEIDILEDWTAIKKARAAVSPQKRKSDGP
# UniProt Q8TBE0: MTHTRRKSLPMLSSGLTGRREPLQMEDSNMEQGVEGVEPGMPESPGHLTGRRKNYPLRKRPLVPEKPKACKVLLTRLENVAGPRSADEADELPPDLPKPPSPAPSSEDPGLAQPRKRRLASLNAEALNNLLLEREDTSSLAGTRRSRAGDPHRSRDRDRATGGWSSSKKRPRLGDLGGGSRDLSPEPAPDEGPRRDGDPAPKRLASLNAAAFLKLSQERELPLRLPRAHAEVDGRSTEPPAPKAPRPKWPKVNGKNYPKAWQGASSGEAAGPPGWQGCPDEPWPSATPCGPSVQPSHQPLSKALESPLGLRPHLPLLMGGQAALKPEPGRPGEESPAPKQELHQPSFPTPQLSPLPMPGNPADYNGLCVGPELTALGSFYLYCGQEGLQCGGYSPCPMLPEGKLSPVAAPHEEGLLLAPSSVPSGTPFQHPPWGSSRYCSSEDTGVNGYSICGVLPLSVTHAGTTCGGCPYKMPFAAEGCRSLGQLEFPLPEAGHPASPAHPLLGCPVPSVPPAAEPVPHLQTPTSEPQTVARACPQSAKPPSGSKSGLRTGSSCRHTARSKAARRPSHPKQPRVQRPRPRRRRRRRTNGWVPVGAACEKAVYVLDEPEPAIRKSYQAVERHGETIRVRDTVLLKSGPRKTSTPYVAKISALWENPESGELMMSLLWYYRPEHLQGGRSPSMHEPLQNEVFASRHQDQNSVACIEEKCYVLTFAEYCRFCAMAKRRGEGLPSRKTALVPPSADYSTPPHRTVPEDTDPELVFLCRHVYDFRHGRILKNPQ
# UniProt Q96IK1: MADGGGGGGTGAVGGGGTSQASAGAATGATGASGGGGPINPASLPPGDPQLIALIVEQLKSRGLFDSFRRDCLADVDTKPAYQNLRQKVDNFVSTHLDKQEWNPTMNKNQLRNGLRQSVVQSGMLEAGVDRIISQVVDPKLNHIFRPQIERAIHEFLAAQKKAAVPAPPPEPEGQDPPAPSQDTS
# The list shows a part of the results.
# Compound: NCC(=O)Nc1ccc(-n2nc(C(F)(F)F)cc2-c2ccc3c(ccc4ccccc43)c2)cc1
# Assay: log2 fold change, soluble protein after heating vs DMSO (PISA); higher = thermal stabilisation; K562 cells, 10 uM, 30 min; active = over 0.2 and 3.5 SD of the protein, either way, in both replicates (recomputed)
# Outline: (§1)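 Soluble protein was quantified by TMTpro 16plex LC-MS/MS after channel sums were equalised. It was obtained as the supernatant after 21,000xg for 90 min from pooled aliquots of K562 cells (2×10^6 cells/mL, 10 μM compound, 30 min) heated for 3 min across 48°C-58°C and extracted in PBS with 0.5% NP-40 at 4°C. Thermal stability values are relative to control samples and come from duplicates. They are given as log2 fold changes.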
row,Target,log2 fold change
1,AURKB isoform 5 (UniProt Q96GD4),inactive: -0.066
2,BFAR (UniProt Q9NZS9),inactive: 0.136
3,BCL9 (UniProt O00512),inactive: -0.206
4,BRCA1 isoform 7 (UniProt P38398),inactive: 0.103
5,AUNIP isoform 2 (UniProt Q9H7T9),inactive: 0.073
6,BET1L (UniProt Q9NYM9),inactive: 0.014
7,AURKAIP1 (UniProt Q9NWT8),inactive: 0.143
8,BCL7B (UniProt Q9BQE9),inactive: -0.072
9,AXIN1 (UniProt O15169),inactive: -0.174
10,BNIP3L (UniProt O60238),inactive: 0.017
11,BAZ1B (UniProt Q9UIG0),inactive: -0.034
12,BCL2L11 (UniProt O43521),inactive: 0.147
13,BIN1 (UniProt O00499),inactive: -0.205

# Compound: Nc1ccccc1NC(=O)c1ccc(CNC(=O)OCc2cccnc2)cc1 [entinostat]
# Assay: as above
# Outline: as §1
row,Target,log2 fold change
1,BPTF (UniProt Q12830),inactive: -0.028
2,B4GALT2 isoform 3 (UniProt O60909),inactive: 0.009
3,BCL9 (UniProt O00512),inactive: -0.088
4,BRCA1 isoform 7 (UniProt P38398),inactive: -0.274
5,AUNIP isoform 2 (UniProt Q9H7T9),inactive: 0.003
6,BET1L (UniProt Q9NYM9),inactive: -0.203
7,AURKAIP1 (UniProt Q9NWT8),inactive: 0.028
8,BLZF1 (UniProt Q9H2G9),inactive: 0.091
9,BAIAP2 isoform 4 (UniProt Q9UQB8),inactive: -0.095
10,BPIFB1 (UniProt Q8TDL5),inactive: 0.257
11,B3GNT8 (UniProt Q7Z7M8),inactive: -0.037
12,BCL7A isoform 2 (UniProt Q4VC05),inactive: -0.067
13,BHMT (UniProt Q93088),inactive: 0.249
14,BAZ1B (UniProt Q9UIG0),inactive: -0.117
15,BCL2L11 (UniProt O43521),inactive: 0.025
16,ATXN2 (UniProt F8W0B5),inactive: -0.054

# Compound: O=C(CCCCCCC(=O)Nc1ccccc1)NO [vorinostat]
# Assay: as above
# Outline: as §1
row,Target,log2 fold change
1,BRMS1 (UniProt Q9HCU9),inactive: -0.053
2,BCL9 (UniProt O00512),inactive: -0.056
3,AXIN1 (UniProt O15169),inactive: 0.21
4,ATRX (UniProt P46100),inactive: -0.016
5,BAHD1 (UniProt Q8TBE0),inactive: -0.136
6,BAP18 isoform 3 (UniProt Q8IXM2),inactive: 0.192
7,BCAS3 isoform 8 (UniProt Q9H6U6),inactive: 0.021
8,BOD1 (UniProt Q96IK1),inactive: -0.091
9,BAZ1B (UniProt Q9UIG0),inactive: 0.281
10,BCL2L11 (UniProt O43521),inactive: -0.089
11,ATXN2 (UniProt F8W0B5),inactive: -0.154

# Compound: O=C(CCCCCCNC(=O)c1cnc(N(c2ccccc2)c2ccccc2Cl)nc1)NO [citarinostat]
# Assay: as above
# Outline: as §1
row,Target,log2 fold change
1,AURKB isoform 5 (UniProt Q96GD4),inactive: -0.19
2,BRMS1 (UniProt Q9HCU9),inactive: -0.097
3,BORCS8 (UniProt Q96FH0),inactive: -0.054
4,BCL9 (UniProt O00512),inactive: 0.055
5,BET1L (UniProt Q9NYM9),inactive: -0.002
6,AURKAIP1 (UniProt Q9NWT8),inactive: -0.088
7,BNIP3L (UniProt O60238),inactive: 0.061
8,BPIFB1 (UniProt Q8TDL5),inactive: 0.011
9,BCL7A isoform 2 (UniProt Q4VC05),inactive: 0.134
10,BAHD1 (UniProt Q8TBE0),inactive: -0.016
11,BCAS3 isoform 8 (UniProt Q9H6U6),inactive: -0.104
12,BAZ1B (UniProt Q9UIG0),inactive: 0.254
13,BCL2L11 (UniProt O43521),inactive: 0.017
14,ATXN2 (UniProt F8W0B5),inactive: -0.031

# Compound: O=C(O)c1ccc2c(c1)nc(Nc1cccc(Cl)c1)c1ccncc12 [silmitasertib]
# Assay: as above
# Outline: as §1
row,Target,log2 fold change
1,BRMS1 (UniProt Q9HCU9),inactive: -0.042
2,BFAR (UniProt Q9NZS9),inactive: 0.133
3,BRCA1 isoform 7 (UniProt P38398),inactive: -0.219
4,BET1L (UniProt Q9NYM9),inactive: 0.063
5,AURKAIP1 (UniProt Q9NWT8),inactive: 0.044
6,BCL7B (UniProt Q9BQE9),inactive: -0.325
7,BNIP3L (UniProt O60238),inactive: 0
8,"BRAF, A0A2R8Y8E0",inactive: -0.064
9,BCL7C (UniProt Q8WUZ0),inactive: -0.141
10,BAHD1 (UniProt Q8TBE0),inactive: 0.08
11,BAP18 isoform 3 (UniProt Q8IXM2),inactive: -0.119
12,BOD1 (UniProt Q96IK1),inactive: -0.043
13,BAZ1B (UniProt Q9UIG0),inactive: 0.002
14,BCL2L11 (UniProt O43521),inactive: -0.008
15,BIN1 (UniProt O00499),inactive: -0.091
16,ATXN2 (UniProt F8W0B5),inactive: 0.069
